Measured values: patent US20090175873A1
Results are given in words; binding and its absence hold for the method and conditions named. For some assays here: Binding seen in cells or lysates may run through a third protein. Some entries that bind do so weakly or less than the wild type.

By UniProt entry, the sequences of proteins in these tests, tags left out. Where a name states a change or a piece, a line headed by the entry shows the natural chain unless it says otherwise.
UniProt P11087: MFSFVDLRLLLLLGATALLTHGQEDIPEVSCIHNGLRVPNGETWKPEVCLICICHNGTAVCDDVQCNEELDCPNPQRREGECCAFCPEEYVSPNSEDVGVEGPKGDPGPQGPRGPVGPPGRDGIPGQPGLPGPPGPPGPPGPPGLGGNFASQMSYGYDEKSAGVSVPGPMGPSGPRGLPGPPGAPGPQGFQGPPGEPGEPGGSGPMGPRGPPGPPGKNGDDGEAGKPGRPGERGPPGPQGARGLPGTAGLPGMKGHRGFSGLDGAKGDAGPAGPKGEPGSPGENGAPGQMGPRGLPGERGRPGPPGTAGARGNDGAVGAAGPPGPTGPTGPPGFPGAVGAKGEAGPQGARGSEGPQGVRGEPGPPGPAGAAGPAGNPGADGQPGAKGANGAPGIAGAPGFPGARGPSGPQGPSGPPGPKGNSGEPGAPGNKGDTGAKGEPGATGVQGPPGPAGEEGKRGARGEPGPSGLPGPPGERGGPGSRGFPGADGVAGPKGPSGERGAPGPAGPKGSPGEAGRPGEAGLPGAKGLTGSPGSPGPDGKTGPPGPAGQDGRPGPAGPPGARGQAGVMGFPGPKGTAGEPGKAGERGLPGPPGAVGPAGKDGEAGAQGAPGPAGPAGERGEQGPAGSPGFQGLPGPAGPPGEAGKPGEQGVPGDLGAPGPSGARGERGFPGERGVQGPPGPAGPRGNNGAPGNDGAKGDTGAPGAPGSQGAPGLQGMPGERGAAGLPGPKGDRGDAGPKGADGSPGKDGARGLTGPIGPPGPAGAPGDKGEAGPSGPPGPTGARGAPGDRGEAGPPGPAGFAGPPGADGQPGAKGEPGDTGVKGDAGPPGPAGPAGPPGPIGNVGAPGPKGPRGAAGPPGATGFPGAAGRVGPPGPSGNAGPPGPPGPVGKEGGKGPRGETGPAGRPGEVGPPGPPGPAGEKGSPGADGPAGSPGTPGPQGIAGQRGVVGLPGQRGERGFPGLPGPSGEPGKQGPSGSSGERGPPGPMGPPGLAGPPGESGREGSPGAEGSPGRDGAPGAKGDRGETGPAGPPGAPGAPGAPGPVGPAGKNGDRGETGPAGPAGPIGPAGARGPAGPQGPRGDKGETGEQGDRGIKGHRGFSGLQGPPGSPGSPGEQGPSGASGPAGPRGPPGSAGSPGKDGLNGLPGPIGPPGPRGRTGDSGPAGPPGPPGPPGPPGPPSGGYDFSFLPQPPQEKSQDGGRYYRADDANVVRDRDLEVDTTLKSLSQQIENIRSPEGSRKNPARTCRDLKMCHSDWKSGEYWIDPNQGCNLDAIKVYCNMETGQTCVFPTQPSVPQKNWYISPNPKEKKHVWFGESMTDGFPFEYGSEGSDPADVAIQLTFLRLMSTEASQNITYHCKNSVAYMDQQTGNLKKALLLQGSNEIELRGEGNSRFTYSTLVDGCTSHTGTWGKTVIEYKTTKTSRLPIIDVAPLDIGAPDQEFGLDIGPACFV
UniProt Q01149: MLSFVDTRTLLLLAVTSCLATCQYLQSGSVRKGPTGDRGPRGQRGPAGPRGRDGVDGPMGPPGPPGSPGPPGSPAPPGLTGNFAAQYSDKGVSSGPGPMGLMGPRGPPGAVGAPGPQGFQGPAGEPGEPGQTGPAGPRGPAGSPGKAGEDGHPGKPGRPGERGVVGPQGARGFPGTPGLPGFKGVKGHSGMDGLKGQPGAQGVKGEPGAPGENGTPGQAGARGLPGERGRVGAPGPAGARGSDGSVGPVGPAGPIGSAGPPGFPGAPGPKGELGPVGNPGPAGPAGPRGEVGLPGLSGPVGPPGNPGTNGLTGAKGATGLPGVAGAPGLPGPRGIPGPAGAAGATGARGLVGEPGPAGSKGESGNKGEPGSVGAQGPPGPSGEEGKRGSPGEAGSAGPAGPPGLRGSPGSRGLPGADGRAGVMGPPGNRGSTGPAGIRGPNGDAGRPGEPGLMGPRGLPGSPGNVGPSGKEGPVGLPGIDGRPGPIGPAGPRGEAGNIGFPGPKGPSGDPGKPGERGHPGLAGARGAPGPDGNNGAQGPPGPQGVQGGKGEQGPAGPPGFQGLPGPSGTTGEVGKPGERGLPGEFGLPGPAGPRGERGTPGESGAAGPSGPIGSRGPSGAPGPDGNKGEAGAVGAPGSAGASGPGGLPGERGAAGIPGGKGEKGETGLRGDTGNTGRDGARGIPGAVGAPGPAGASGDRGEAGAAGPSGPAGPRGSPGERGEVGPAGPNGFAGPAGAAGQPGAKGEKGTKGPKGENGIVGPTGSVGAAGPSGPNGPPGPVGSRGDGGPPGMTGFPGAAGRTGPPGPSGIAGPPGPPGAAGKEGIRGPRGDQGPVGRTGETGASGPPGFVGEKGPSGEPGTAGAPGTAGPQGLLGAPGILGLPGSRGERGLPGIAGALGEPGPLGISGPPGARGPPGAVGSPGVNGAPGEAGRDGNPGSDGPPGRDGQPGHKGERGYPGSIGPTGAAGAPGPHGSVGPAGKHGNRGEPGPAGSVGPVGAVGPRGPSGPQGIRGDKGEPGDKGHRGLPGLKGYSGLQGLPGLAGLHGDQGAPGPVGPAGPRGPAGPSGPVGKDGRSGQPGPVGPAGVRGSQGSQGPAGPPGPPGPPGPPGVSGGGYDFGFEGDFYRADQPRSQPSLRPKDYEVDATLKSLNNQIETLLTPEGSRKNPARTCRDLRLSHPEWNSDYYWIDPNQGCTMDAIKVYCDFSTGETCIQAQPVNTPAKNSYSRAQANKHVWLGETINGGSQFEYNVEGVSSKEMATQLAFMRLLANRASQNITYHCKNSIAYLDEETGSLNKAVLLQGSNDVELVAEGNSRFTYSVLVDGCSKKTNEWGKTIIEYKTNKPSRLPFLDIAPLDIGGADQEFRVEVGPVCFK
UniProt P06756: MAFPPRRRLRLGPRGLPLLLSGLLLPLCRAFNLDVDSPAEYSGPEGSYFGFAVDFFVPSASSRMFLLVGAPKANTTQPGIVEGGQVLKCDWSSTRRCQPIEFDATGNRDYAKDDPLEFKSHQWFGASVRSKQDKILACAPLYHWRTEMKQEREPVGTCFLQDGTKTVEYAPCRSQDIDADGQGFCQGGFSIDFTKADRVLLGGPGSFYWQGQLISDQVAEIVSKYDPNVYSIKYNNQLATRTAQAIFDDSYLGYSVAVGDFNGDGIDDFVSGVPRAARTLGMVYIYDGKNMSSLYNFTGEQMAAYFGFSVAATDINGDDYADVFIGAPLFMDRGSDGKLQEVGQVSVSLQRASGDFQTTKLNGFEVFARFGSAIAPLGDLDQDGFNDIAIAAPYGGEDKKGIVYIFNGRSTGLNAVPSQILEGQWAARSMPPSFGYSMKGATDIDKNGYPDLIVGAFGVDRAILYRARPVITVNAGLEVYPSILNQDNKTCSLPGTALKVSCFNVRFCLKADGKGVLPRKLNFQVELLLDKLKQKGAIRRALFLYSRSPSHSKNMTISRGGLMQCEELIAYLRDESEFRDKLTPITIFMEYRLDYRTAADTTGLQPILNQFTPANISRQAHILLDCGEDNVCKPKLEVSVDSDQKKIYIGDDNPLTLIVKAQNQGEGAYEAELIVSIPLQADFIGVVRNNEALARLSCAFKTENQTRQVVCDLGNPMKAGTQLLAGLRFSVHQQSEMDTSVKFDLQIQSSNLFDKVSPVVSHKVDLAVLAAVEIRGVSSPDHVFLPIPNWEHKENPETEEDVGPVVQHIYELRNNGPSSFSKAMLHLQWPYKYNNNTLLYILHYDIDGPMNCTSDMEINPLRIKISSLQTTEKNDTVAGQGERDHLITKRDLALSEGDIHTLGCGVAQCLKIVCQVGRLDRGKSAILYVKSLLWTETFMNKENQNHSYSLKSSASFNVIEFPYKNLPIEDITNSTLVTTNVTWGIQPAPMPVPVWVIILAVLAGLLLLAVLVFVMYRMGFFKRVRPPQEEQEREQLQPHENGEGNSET
UniProt P05106: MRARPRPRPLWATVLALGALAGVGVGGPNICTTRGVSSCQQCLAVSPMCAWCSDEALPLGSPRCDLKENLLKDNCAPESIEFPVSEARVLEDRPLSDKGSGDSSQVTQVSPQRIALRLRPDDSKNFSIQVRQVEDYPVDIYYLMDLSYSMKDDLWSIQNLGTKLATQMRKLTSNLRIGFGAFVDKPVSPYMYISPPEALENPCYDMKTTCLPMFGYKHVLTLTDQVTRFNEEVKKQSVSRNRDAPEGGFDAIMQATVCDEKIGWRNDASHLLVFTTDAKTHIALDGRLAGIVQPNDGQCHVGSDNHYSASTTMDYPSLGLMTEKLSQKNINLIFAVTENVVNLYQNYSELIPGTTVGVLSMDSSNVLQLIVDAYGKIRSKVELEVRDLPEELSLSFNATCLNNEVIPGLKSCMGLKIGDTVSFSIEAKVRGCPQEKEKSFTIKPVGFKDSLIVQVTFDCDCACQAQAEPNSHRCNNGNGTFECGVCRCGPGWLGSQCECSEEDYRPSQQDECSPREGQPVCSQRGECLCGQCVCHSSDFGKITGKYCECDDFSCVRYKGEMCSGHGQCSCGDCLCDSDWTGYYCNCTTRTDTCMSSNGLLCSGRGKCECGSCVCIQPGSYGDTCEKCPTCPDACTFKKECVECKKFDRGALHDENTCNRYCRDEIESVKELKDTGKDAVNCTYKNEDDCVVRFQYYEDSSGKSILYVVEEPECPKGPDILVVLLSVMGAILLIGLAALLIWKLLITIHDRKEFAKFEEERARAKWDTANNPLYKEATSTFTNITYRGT

How the values were obtained:
[1] = target: collagen I (mouse) (UniProt P11087+Q01149); assay: double immunofluorescence staining of tumour sections (co-localization)
[2] = target: T1, αvβ3 integrin of MDA-MB-231 human mammary carcinoma cells (human) (UniProt P06756+P05106); assay: reciprocal co-immunoprecipitation from cell lysates, western blot
[3] = target: T1, αvβ3 integrin of MDA-MB-231 human mammary carcinoma cells (human); assay: co-immunoprecipitation from MDA-MB231 cell lysates with anti-integrin antibodies, western blot
[4] = target: T1, αvβ3 integrin of MDA-MB-231 human mammary carcinoma cells (human); assay: immunohistochemical double staining of MDA-MB-231 cells with anti-αvβ3 and anti-legumain antibodies
[5] = target: T1, αvβ3 integrin of MDA-MB-231 human mammary carcinoma cells (human); assay: reciprocal co-immunoprecipitation (anti-legumain and anti-αvβ3 antibodies), western blot

binding [1] | binding [2] | binding [3] | binding [4] | binding [5] | Binder
binds | – | – | – | – | mouse legumain (enzyme, UniProt O89017 18-325, looked up) VPVGVDDPEDGGKHWVVIVAGSNGWYNYRHQADACHAYQIIHRNGIPDEQIIVMMYDDIANSEENPTPGVVINRPNGTDVYKGVLKDYTGEDVTPENFLAVLRGDAEAVKGKGSGKVLKSGPRDHVFIYFTDHGATGILVFPNDDLHVKDLNKTIRYMYEHKMYQKMVFYIEACESGSMMNHLPDDINVYATTAANPKESSYACYYDEERGTYLGDWYSVNWMEDSDVEDLTKETLHKQYHLVKSHTNTSHVMQYGNKSISTMKVMQFQGMKHRASSPISLPPVTHLDLTPSPDVPLTILKRKLLRTN
– | binds | binds | binds | binds | human legumain (enzyme) IPIDDPEDGGKHWVVIVAGSNGWYNYRHQADACHAYQIIHRNGIPDEQIVVMMYDDIAYSEDNPTPGIVINRPNGTDVYQGVPKDYTGEDVTPQNFLAVLRGDAEAVKGIGSGKVLKSGPQDHVFIYFTDHGSTGILVFPNEDLHVKDLNETIHYMYKHKMYRKMVFYIEACESGSMMNHLPDNINVYATTAANPRESSYACYYDEKRSTYLGDWYSVNWMEDSDVEDLTKETLHKQYHLVKSHTNTSHVMQYGNKTISTMKVMQFQGMKRKASSPVPLPPVTHLDLTPSPDVPLTIMKRKLMNTN
